The record followed here is PMC7034062.

By UniProt entry, the sequences of proteins in these tests, tags left out.
UniProt P24279: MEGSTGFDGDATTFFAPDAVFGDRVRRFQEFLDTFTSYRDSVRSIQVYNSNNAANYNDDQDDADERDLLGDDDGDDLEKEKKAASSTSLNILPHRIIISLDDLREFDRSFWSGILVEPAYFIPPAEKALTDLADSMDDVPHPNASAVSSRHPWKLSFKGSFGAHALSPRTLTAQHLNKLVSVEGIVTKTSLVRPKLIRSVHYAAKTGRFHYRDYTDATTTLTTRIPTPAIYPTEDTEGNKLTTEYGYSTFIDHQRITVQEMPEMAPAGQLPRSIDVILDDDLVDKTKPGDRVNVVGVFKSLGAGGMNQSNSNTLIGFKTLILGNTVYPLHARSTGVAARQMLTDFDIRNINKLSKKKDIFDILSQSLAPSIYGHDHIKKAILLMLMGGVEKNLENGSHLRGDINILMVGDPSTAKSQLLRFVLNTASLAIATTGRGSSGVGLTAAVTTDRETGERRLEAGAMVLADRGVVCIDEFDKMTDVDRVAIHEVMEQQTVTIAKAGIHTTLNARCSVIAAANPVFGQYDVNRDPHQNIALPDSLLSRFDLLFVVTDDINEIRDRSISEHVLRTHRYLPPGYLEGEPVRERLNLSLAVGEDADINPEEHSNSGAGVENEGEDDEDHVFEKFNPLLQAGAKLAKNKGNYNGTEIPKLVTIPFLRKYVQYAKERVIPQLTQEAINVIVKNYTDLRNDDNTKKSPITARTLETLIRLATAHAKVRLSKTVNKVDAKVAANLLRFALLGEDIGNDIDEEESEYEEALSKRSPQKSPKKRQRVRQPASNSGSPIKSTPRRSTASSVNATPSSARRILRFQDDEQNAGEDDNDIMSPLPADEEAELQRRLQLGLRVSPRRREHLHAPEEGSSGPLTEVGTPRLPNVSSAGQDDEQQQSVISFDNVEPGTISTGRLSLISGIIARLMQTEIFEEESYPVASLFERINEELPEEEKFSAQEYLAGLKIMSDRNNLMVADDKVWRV
UniProt P04050: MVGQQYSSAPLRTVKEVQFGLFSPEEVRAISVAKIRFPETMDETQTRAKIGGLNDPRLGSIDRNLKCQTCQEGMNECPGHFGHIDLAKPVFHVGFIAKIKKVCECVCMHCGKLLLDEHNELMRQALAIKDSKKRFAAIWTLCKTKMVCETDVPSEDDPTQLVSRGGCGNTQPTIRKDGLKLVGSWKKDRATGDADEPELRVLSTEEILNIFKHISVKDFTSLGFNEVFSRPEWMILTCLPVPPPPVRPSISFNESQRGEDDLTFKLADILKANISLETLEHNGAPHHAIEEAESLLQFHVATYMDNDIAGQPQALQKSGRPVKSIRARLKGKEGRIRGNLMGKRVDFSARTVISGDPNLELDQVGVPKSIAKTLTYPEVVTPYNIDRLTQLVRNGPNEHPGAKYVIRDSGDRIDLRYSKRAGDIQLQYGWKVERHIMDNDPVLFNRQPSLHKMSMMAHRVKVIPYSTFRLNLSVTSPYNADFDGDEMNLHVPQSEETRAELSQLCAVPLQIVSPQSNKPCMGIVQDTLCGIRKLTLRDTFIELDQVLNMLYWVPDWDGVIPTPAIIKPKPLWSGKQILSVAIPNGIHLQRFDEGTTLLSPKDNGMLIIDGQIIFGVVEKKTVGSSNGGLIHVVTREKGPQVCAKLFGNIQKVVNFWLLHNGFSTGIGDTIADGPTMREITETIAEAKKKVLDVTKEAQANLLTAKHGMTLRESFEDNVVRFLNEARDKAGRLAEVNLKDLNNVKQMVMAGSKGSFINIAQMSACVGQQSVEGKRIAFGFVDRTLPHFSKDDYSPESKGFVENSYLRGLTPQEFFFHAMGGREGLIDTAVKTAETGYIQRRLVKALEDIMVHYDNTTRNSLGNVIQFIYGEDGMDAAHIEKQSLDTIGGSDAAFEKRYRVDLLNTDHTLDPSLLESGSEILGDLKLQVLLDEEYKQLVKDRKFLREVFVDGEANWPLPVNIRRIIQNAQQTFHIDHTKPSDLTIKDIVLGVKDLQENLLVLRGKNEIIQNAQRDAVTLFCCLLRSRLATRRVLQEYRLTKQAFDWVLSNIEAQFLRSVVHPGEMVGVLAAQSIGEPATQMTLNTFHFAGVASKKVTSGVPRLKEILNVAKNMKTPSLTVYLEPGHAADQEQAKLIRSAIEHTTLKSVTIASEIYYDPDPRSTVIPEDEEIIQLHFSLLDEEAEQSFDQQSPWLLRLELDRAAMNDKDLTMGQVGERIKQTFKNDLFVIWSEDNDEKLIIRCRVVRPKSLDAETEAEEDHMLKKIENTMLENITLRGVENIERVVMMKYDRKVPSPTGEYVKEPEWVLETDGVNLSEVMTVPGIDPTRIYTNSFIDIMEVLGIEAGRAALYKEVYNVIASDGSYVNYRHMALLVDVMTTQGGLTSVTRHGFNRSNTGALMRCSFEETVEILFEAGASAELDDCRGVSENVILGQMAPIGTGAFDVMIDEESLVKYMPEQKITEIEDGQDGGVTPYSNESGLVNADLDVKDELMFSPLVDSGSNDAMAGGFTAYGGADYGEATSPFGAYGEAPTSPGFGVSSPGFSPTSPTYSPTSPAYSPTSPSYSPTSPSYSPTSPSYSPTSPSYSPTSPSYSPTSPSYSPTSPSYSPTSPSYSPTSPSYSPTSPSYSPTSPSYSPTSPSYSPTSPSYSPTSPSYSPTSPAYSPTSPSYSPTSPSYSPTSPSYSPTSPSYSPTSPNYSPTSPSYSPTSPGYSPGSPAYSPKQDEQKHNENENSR

Where two headings read alike, the source gives them in different places. These are yes or no findings as the source states them, for the method shown. Binding seen in cells or lysates may run through a third protein. Some entries that bind do so weakly or less than the wild type.

One assay concerns the target TAP-Mcm3 (S. cerevisiae) (UniProt P24279). The experiment in a line: co-IP; TAP-tagged bait captured for 2 h on TAP-beads (Dynabeads) from nuclease-treated, clarified extracts of synchronised yeast cells (S phase unless told otherwise; also G1, psf1-1, td-sld3-7, rpb1-1 and single deletion backgrounds); washes in 100 mM HEPES-KOH pH 7.9, 50 mM potassium acetate, 50 mM magnesium acetate, 2 mM EDTA, 0.1% Igepal CA-630; immunoblotting. For orientation: A western blot detects proteins with antibodies after separation by electrophoresis.

Assay [1] has as its target Sen1-3-TAP (S. cerevisiae) (UniProt Q00416). The description is as above.
Assay [2] has as its target Sen1-TAP (S. cerevisiae) (UniProt Q00416). Described as above.
For assay [3], the target named is T1, TAP-Sen1 (2-931) (S. cerevisiae) (UniProt Q00416).
T1 sequence: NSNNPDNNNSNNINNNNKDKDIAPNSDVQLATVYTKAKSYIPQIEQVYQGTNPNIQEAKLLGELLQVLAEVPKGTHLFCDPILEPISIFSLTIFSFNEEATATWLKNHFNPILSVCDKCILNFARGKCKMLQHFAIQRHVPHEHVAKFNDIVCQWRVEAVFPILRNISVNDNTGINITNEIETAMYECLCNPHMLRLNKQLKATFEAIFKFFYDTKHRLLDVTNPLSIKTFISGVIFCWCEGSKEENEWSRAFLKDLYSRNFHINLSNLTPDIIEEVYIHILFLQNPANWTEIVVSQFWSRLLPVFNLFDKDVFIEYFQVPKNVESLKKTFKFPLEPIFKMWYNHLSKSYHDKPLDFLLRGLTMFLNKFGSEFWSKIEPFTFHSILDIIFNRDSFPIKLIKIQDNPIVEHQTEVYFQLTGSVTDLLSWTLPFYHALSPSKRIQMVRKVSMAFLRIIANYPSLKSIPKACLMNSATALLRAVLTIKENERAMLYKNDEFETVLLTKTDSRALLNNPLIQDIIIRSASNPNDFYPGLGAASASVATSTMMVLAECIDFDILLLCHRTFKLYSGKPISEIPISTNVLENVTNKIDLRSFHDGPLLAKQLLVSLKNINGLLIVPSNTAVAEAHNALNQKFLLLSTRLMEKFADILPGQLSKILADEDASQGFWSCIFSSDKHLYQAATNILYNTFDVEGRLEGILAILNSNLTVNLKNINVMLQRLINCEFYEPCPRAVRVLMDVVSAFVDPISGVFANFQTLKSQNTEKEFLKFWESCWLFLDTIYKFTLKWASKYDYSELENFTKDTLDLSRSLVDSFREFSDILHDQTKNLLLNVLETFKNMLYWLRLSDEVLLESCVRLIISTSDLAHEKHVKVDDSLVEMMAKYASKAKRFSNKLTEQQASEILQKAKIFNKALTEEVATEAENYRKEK
The experiment in a line: co-IP; as a1, in cells without Ctf4 (ctf4Δ; also td-sld3-7 ctf4Δ); G1 arrest or S phase.

For assay [4], the target named is Sen1-3-TAP (S. cerevisiae) (UniProt Q00416). The assay can be described thus: co-IP; TAP-tagged bait captured for 2 h on TAP-beads (Dynabeads) from nuclease-treated, clarified extracts of synchronised yeast cells (S phase unless told otherwise; also G1, psf1-1, td-sld3-7, rpb1-1 and single deletion backgrounds); washes in 100 mM HEPES-KOH pH 7.9, 50 mM potassium acetate, 50 mM magnesium acetate, 2 mM EDTA, 0.1% Igepal CA-630; immunoblotting. This is another data set of the same source.

Assay [5] has as its target Sen1-TAP (S. cerevisiae) (UniProt Q00416). The assay is described as above. The source holds these as a separate data set.
In assay [6] the target is T1, TAP-Sen1 (2-931) (S. cerevisiae). The assay is described as above.

As for “3HA-Sen1 (2-2231) W773A E774A W777A (from UniProt Q00416 2-2231)”, the binding result with TAP-Mcm3 (S. cerevisiae) is listed as “no binding”.
As for “RNAPII (Rpo21) (from UniProt P04050 1-1733)”, the binding entry (in assay [1]; with Sen1-TAP (S. cerevisiae) [2]) was “binds” in each case.

B1: Mrc1 (protein, UniProt P25588 1-1096)
chain: MDDALHALSSLTAKKRTTTYKKVAVPILDENDNTNGNGPNDIDNPPELTGNGFLFANATLNRVKNRLEGKKAPEQNHNNGKDRSENSLPTQLISNLYDGGEELEKSEVKDNSYSEKNVSSSFTQTQRIPVSIQQDKVFNVPIHSVNDGKPTQLIKEDGLVNETSQALKTPLTTGRPGATQRIDSSGATSQTQPIKSIEPQSQIITTSSNHSNALSPKIPIIPTELIGTSPLFQSIQNRGPDTQMDVPPQTAHDEDKTQAIGIPQATHQEQKTQIDTVAQTLQDEVPHTLKIREIQSELASEDSKREKARNVEYKKPQKPIPTKKFFSKESFLADFDDSSSNEDDDIKLENAHPKPVQNDDELHENKSVELNLTDETRINEKRVPLLSSYANNLKREIDSSKCITLDLDSDSDEYGDDDMDSIKLSKDESVLPISQLSKATILNLKARLSKQNQKLSQRPNKSKDPKVDHNVLLNTLRKASRKQILDHQKEVIETKGLKLEDMAKEKEIVENLLEQEILRNKRIRQKEKRREKLEENDFQLNAHDSGSDSGSESSGFALSGNEIADYESSGSENDNRRESDSEKEDDEIILKQKKSHHVKHIINESDSDTEVEAKPKEKADESLPKRIAINLGHYGDNIGEDTDKFQETNVLDTQNIEEVMAERNTIENEVKDDVYVNEEADEAIRRQLIDKEKLQLKQKEKEHEAKIKELKKRGVTNFFEMEAEESEDEWHGIGGADGEGSDDYDSDLEKMIDDYSKNNFNPHEIREMLAAENKEMDIKMINKILYDIKNGGFRNKRAKNSLELELSDDDEDDVLQQYRLKRRELMRKRRLEIGDDAKLVKNPKSSAFFESMVEDIIEYKNPFGAEEEYNLDITSTATDLDTQDNSINVGDNTGNNEQKPVDQKNKKVIISEDFVQKSLSFLKSNNYEDFETDKELSRIQHGNDEAIEDLYTLKQNSSIKSFTNSQTDSTTSKTVNTIIDLEKRPEDEDEVENGDTSLVGVFKHPSIIKSFASRTDINDKFKEGNKTVKILKSYKTVGSSKASITYMGKTRKLIAPKRKTEGSHRYHHDHHNKKMKMKTKTKSNKLFESGQDSFDN
Take B1: the binding entry is given as “binds” in assay [3], “no binding” in assay [4], “binds” in the assay with Sen1-TAP (S. cerevisiae) [5] and “binds weakly” in assay [6].

B2: Ctf4 (protein, UniProt Q01454 1-927)
chain: MVSVIDKLVFDFGGKTLVSLAPDNNTLCVANKNGLTKILKTNNPEEEPETLDSSKLVSSIKCYSNSHFLMTTMQGDALRYNIDSSQEELLARFALPLRDCCVIHSGKMAVFGGDDLELILLELDDETHKKHAIKIDEQVSQISYNSQMNILAVSMINGKVQIFSLTSTIPNKVHELNDYIVANSYDDTHRDKILSNMMDDIDKDNDNDLSETADPDENNVADPEFCAANRICTRVAWHPKGLHFALPCADDTVKIFSIKGYSLQKTLSTNLSSTKAHFIDLQFDPLRGTYIAAVDLNNKLTVWNWETSEIHYTREFKRKITNIAWKIQADSKTLDLVLGTWSGSIAIVQNLAESVVSNIPDQSVAESSTKHGLFVDSESDLENLEGNDDINKSDKLFSDITQEANAEDVFTQTHDGPSGLSEKRKYNFEDEEDFIDDDDGAGYISGKKPHNEHSYSRVHKTHSFPISLANTGKFRYMPFSPAGTPFGFTDRRYLTMNEVGYVSTVKNSEQYSITVSFFDVGRFREYHFEDLFGYDLCFLNEKGTLFGQSKTGQIQYRPHDSIHSNWTKIIPLQAGERITSVAATPVRVIVGTSLGYFRSFNQFGVPFAVEKTSPIVALTAQNYRVFSVHYSQFHGLSYSLSELGTSSKRYYKRECPLPMSLPNINSDMKKDANLDYYNFNPMGIKSLFFSSYGDPCIFGSDNTLLLLSKWRSPEESKWLPILDSNMEIWKMSGGKETTDIHVWPLALAYDTLNCILVKGKHIWPEFPLPLPSEMEIRMPVFVKSKLLEENKAILNKKNEIGADTEAEEGEEDKEIQIPVSMAAEEEYLRSKVLSELLTDTLENDGEMYGNENEVLAALNGAYDKALLRLFASACSDQNVEKALSLAHELKQDRALTAAVKISERAELPSLVKKINNIREARYEQQLK
With B2, the binding entry in assay [4] was “no binding”; with Sen1-TAP (S. cerevisiae) [5], “binds”; in assay [6], “binds”.
